Some results were stated once for a whole list of compounds, not compound by compound. Some ranges recur; such a range may be that of the whole group of compounds.
Each molecule was assayed on EBV-eGFP infection of Raji cells (assay: EBV neutralization assay in Raji cells). Settings: protein G and size-exclusion chromatography-purified mAbs, lowest concentration 12.5 μg/ml.
Assay type: cell-based, Epstein-Barr virus
Procedure: EBV neutralization assay was performed in Raji cells as previously described (47). Briefly, purified individual anti-gp350 mAbs were incubated with purified AGS-EBV-eGFP (titer calculated to infect at least 8% of HEK293 cells seeded in 100 μl of serum-free DMEM) for 2 hours at 37° C. To represent EBV infection of B cells, the pre-incubated anti-gp350 mAbs/AGS-EBV-eGFP were used to infect 5×10^5 Raji cells seeded in a 96-well plate for 2 hours at 37° C. Neutralizing 72A1 and non-neutralizing 2L10 anti-gp350 mAbs served as positive and negative controls, respectively. Infected cells were washed three times with PBS to remove any unbound viruses and antibodies. Washed, infected cells were incubated in 96-well plates at 37° C. for 48 hours post-infection and the number of eGFP+ (infected) cells was determined using flow cytometry. All dilutions were performed in quintuplicate and the assays were repeated three times. Antibody EBV neutralization activity was calculated as: % neutralization=(EBValone−EBVmAb)/(EBValone)×100.
However, this antibody was recently reported to be a mixture of both functional and non-functional antibodies (50). […] The percentage of eGFP+ cells (percent infection) was determined using flow cytometry as described (47). The nAbs 72A1 and E1D1 were used as positive controls, whereas the anti-gp350 non-neutralizing mAb 2L10 and KSHV gH/gL mAb 54A1 were used as negative controls. Because HB4, HB13, HB15, HB16, HB19, HB21, and HB23 were confirmed to be polyclonal based on isotyping and/or sequence data, they were eliminated from further consideration in the neutralization assay. HB18 was not used in neutralization experiments because it was identical to HB8.
The purified eGFP-tagged-EBV was titered in Raji cells to determine percent EBV infection using a range of volumes (50-250 μl) (FIG. 5A). Then initial neutralization of EBV was conducted in Raji cells using purified mAbs at various concentrations (12.5, 25, 50, and 100 μg/ml).
EBV-eGFP+ cells were enumerated using flow cytometry.

Molecule	blocking of EBV infection of Raji cells (nAb activity)
HB1: murine anti-EBV gp350 mAb, IgG1 κ; heavy chain SEQ ID NO: 102, light chain SEQ ID NO: 103; neutralizing (antibody, V domains shown, heavy chain mAb HB1; light chain mAb HB1, murine anti-EBV gp350 mAb, IgG1 κ; neutralizing) VH: PGLVAPSQSLSITCTVSGFLLTTYGVHWVRQPPGKGLEWLGVIWAGGSTNYNSALMSRLSINKDISKSQVFLKMNSLQTDDTAMYYCTRDRGYGYLYAMDYWGQGTSVTVSSAKTTPPSVYPLAPGSAAQTNSMVTLG VL: KFMSTSVGDRVSVTCKASQNVGTNVAWYQQKPGQSPKALIYSTSSRYTGVPDRFAGSGSGTDYTLTISNVQSEDLAEYFCQQYNTYPYTFGGGTRLDIKRADAAPTV	57-73%
HB11: murine anti-EBV gp350 mAb, IgG1 κ; SEQ ID NO: 120 / 121; neutralizing (antibody, V domains shown, heavy chain mAb HB11; light chain mAb HB11, murine anti-EBV gp350 mAb, IgG1 κ; neutralizing) VH: PSLVKPSQTLSLTCSVTGDSITSGFWNWIRKFPGNKLEYMGYISYSGSTYYNPSLKSRISITRDTSKNQYYLQLNSVTTEDTATYYCARGNGGNYDWYFDVWGAGTTVTVSSAKTTPPSVYPLAPGSAAQTNSMVTLG VL: AIMSASLGEKVTMSCRASSSVNFMNWYQQKSDDSPKLLIYYISNLAPGVPARFSGSGSGNSYSLTISGMEGEDAATYYCQQFTSSPSWTFGGGTKLEIKRADAAPTV	57-73%
HB20: murine anti-EBV gp350 mAb, IgG2a κ; SEQ ID NO: 128 / 129; neutralizing (antibody, V domains shown, heavy chain mAb HB20; light chain mAb HB20, murine anti-EBV gp350 mAb, IgG2a κ; neutralizing) VH: ELVKPGASVKLSCKASGYTFTSYWIQWVKQRPGQGLEWIGEINPTNGHTNYNEKFKTKATLTVDKSSSTAYMRLSSLTSEDSAVYYCARNLYYYGRPDYWGQGTSVTVSSAKTTAPSVYPLAPVCGDTTGSSVTLG VL: SSLSASLGDRVTISCRASQDIGNYLNWYQQKPDGTVKLLIYYTSRLHSGVPSRFSGSGSGTDYSLTISNLEQEDIATYFCQQGNALPPTFGGGTKLEIKRADAAPTV	57-73%

Reference: patent US12012446B2, “Epstein-Barr virus antibodies and uses thereof” (priority 2017, dated 2024)
